The source of these data is PMC11120891.

By UniProt entry, the sequences of proteins in these tests, tags left out.
UniProt P08263: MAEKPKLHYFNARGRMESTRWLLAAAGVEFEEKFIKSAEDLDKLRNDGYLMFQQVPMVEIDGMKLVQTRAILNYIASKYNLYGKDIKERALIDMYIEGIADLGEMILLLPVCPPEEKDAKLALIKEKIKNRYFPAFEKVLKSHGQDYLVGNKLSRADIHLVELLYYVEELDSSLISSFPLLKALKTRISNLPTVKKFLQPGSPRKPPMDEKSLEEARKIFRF

These are yes or no findings as the source states them, for the method shown. In cells and extracts the contact can be indirect. Some binding calls cover weakened binding; strength is not graded here.

The target in experiment [1] is T1, fatty acid binding protein 1 (FABP1) (human) (UniProt P07148).
T1 sequence: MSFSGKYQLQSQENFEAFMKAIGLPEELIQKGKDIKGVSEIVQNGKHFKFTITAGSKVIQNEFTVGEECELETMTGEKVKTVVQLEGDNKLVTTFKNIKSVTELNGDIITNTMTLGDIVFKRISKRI
Kind of experiment: co-IP; L02 cells transfected 48 h, lysed in Pierce IP Lysis Buffer; supernatant incubated overnight with 4 µg FABP1 antibody, magnetic beads 3 h; SDS-PAGE and immunoblot. In general terms: Immunoblotting shows a protein as a band on a membrane.

In experiment [2] the target is glutathione S-transferase alpha 1 (GSTA1), His-tagged (human) (UniProt P08263). Description: co-IP; L02 cells transfected 48 h, lysed in Pierce IP Lysis Buffer; lysate pre-cleared with Protein A/G beads and non-specific IgG, then His-tag antibody and beads overnight at 4 °C; immunoblot (the paper's 'His pull-down').

Consider “glutathione S-transferase alpha 1 (GSTA1), His-tagged (from UniProt P08263 1-222) (enzyme)”, for which the binding result in experiment [1] is reported as “binds”.

B1: fatty acid binding protein 1 (FABP1) (protein, UniProt P07148 1-127)
chain: MSFSGKYQLQSQENFEAFMKAIGLPEELIQKGKDIKGVSEIVQNGKHFKFTITAGSKVIQNEFTVGEECELETMTGEKVKTVVQLEGDNKLVTTFKNIKSVTELNGDIITNTMTLGDIVFKRISKRI
In the case of B1, the binding entry in experiment [2] is “binds”.
